# Measurements as given in PubChem BioAssay AID445 (National Center for Advancing Translational Sciences (NCATS), 2006).
# The other results are listed elsewhere or left out. These are further read-outs of the screen, such as a control signal, another cell line or another target. No call is given for them. Compounds called inactive in the main read-out are mostly missing here. Potencies come from curve fits of mixed quality, noted in brackets.
# Assay: IkB Signaling
# Settings: ABC-DLBCL IkBa-CBG/CBR dual luciferase ratio (green luciferase fused to IkBa over red control in OCI-Ly3 lymphoma cells), 4 h
# In short: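 Luminescence ratio of IκBα-fused green versus native red beetle luciferase in OCI-Ly3 cells, 4 h post-doxycycline with compound; red signal alone, scaled from basal (0%) to zero light (-100%), flagged nonspecific or cytotoxic effects.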
# [1] = measured here: control luc red channel unless noted
compound,measurement,setting,value
O=S(=O)(c1ccc2c(c1)OCCO2)N1CCC(n2cnc3cc(F)ccc32)CC1,AC50,[1],"15.8 µM [falling, partial curve]"
COc1ccccc1CNC(=O)c1oc2ccc3c(c2c1C)C(=O)CC(C)(C)O3,AC50,[1],"0.794 µM [rising, full curve]"
CCOc1ccc(-n2nc3ccc(NC(=O)c4ccc(-c5cccc(Cl)c5)o4)cc3n2)cc1,AC50,[1],"31.6 µM [falling, partial curve]"
Cc1nc2scc(C)n2c(=O)c1S(=O)(=O)Nc1cccc(C(F)(F)F)c1,AC50,[1],"39.8 µM [falling, single point]"
CN1CCc2nc3sc(C(=O)Nc4ccccc4C(F)(F)F)c(N)c3cc2C1,AC50,[1],"31.6 µM [falling, single point]"
O=C(Nc1ccccc1C(=O)NCc1ccc(Cl)cc1)c1ccco1,AC50,[1],"7.94 µM [falling, full curve, poor fit]"
CCCC1=Nc2cc(C(=O)N3CCC(C)CC3)ccc2Sc2ccc(C)cc21,AC50,[1],"31.6 µM [falling, single point]"
CC1=C(C(=O)OC2CCCCCC2)C(c2cccc(Cl)c2)CC(=O)N1 (stereo unspecified),AC50,[1],"31.6 µM [falling, single point]"
O=C(CSc1ccccc1C(=O)O)Nc1cccc(C(=O)O)c1,AC50,[1],"10 µM [falling, partial curve]"
CCOc1ccc(NC(=O)c2ccc(F)c(S(=O)(=O)N3CCN(c4ccccn4)CC3)c2)cc1,AC50,[1],"3.98 µM [falling, full curve, poor fit]"
Cc1ccc(CNC(=O)Cn2c(=O)n(Cc3ccc(F)cc3)c(=O)c3sc4ccccc4c32)cc1,AC50,[1],"3.16 µM [rising, full curve, poor fit]"
CCOc1ccc2[nH]c(=O)c(CN(Cc3cccs3)C(CC)c3nnnn3C(C)(C)CC)cc2c1 (stereo unspecified),AC50,[1],"20 µM [falling, single point]"
O=C(Nc1ccc(Cl)cc1)N1CCC(c2ccccc2)C1 (stereo unspecified),AC50,[1],"12.6 µM [falling, partial curve]"
CCCN(C(=O)Cn1ncc2c([nH]c3ccc(C)cc32)c1=O)c1ccccc1C,AC50,[1],"12.6 µM [falling, partial curve]"
CCc1nc2ccccc2c(C(=O)OCC(=O)NCCCN2CCCC2=O)c1C,AC50,[1],"31.6 µM [falling, single point]"
Cc1ccc(C)c(CNC(=O)c2cc3ccccn3n2)c1,AC50,[1],"10 µM [falling, partial curve]"
CCOC(=O)C1CCC(CN(Cc2cccc(Br)c2)S(=O)(=O)c2ccc(Cl)cc2)CC1 (stereo unspecified),AC50,[1],"7.94 µM [falling, full curve]"
Cc1cc(C(=O)N2CCN(c3cccc(Cl)c3)CC2)c(C)o1,AC50,[1],"3.98 µM [falling, partial curve]"
CCN1C(=O)C(Cc2nc3ccccc3c(=O)n2-c2ccc(OC)cc2)c2ccccc21 (stereo unspecified),AC50,[1],"20 µM [falling, single point]"
COc1ccc(N2CC(NC(=O)COc3ccc4ccccc4c3)CC2=O)cc1OC (stereo unspecified),AC50,[1],"0.0398 µM [rising, full curve, poor fit]"
CCCCC1CCC(C(=O)N2CC(=O)Nc3ccc(Cl)cc3C2c2ccc(F)cc2)CC1 (stereo unspecified),AC50,[1],"10 µM [falling, partial curve]"
O=C1C(=C(O)c2ccccc2)C(=O)c2ccccc21,AC50,[1],"12.6 µM [falling, partial curve]"
O=C1C2=C(Nc3ccccc3SC2c2ccco2)c2ccccc21 (stereo unspecified),AC50,measured here: IkB-luc green channel,"39.8 µM [falling, single point]"
same,AC50,measured here: control luc red channel,"12.6 µM [falling, partial curve]"
COc1ccccc1CNc1nccn(-c2ccccc2)c1=O,AC50,[1],"20 µM [falling, single point]"
COc1ccc(NC(=O)c2cnc(N3CCCCC3)c3ccccc23)cc1Cl,AC50,[1],"6.31 µM [falling, full curve, poor fit]"
CCN(CC)c1ccc(-c2nc(-c3ccco3)no2)cc1[N+](=O)[O-],AC50,[1],"25.1 µM [falling, single point]"
CCC(C)NC(=O)c1sc2nc(C)c(C(=O)Nc3ccc(C)cc3C)c(-c3ccccc3Cl)c2c1N (stereo unspecified),AC50,[1],"0.316 µM [falling, partial curve]"
Cc1ccc(Nc2ccc(N3CCN(C(=O)c4ccc([N+](=O)[O-])cc4)CC3)nn2)cc1,AC50,[1],"15.8 µM [falling, single point]"
Cc1ccc(S(=O)(=O)NCCc2csc(-c3cccc(F)c3)n2)cc1,AC50,[1],"20 µM [falling, partial curve]"
CCOC(=O)c1cccc(NS(=O)(=O)c2cc3c(cc2C)NC(=O)CO3)c1,AC50,[1],"25.1 µM [falling, single point]"
O=C(c1ccc(Nc2nc3ccccc3n3nnnc23)cc1)N1CCN(c2cccc(C(F)(F)F)c2)CC1,AC50,[1],"5.01 µM [falling, full curve]"
Cc1ccc(NC(=O)C2CCN(c3nnc(C)c4c(C)n(-c5ccccc5)nc34)CC2)cc1Cl,AC50,[1],"0.00631 µM [falling, full curve]"
CCCCSc1nnc2c(n1)OC(C)N(C(C)=O)c1ccccc1-2 (stereo unspecified),AC50,[1],"0.01 µM [falling, full curve, poor fit]"
COc1ccc(CCNC(=O)C2COc3ccccc3C2)cc1OC (stereo unspecified),AC50,[1],"10 µM [falling, partial curve, poor fit]"
Cn1c(Oc2ccc(Cl)cc2)nc2c1c(=O)n(Cc1ccc(F)cc1)c(=O)n2C,AC50,[1],"3.98 µM [falling, full curve]"
O=C(NCCc1ccccc1)c1ccc2c(c1)N(Cc1ccc(F)cc1)C(=O)c1ccccc1S2,AC50,[1],"31.6 µM [falling, single point]"
COc1ccc(C(=O)NC(c2ccc(Cl)cc2)c2cc(Cl)c3cccnc3c2O)cc1 (stereo unspecified),AC50,[1],"10 µM [falling, partial curve, poor fit]"
Cc1cc(C)cc(NC(=O)CCC(=O)N2CCSc3ccccc32)c1,AC50,[1],"25.1 µM [falling, single point]"
O=C(CN1CCN(Cc2ccccc2Cl)C1=O)NC1CCCCCC1,AC50,[1],"25.1 µM [falling, single point]"
Cc1nn(-c2ccccc2)c(C)c1C(=O)OCC(=O)NC(=O)NC1CCCCC1,AC50,[1],"25.1 µM [falling, partial curve]"

# Two entries picked at random from those above, as already listed:
compound,measurement,setting,value
O=C1C(=C(O)c2ccccc2)C(=O)c2ccccc21,AC50,[1],"12.6 µM [falling, partial curve]"
Cc1cc(C)cc(NC(=O)CCC(=O)N2CCSc3ccccc32)c1,AC50,[1],"25.1 µM [falling, single point]"
